For 15 compounds, cell number change and AC50 results are on record in PubChem BioAssay AID2685 (National Center for Advancing Translational Sciences (NCATS), 2010).

Molecules are shown by their SMILES. Some of the results follow. These are further read-outs of the screen, such as a control signal, another cell line or another target. No call is given for them. Most of these compounds were active or inconclusive in the main read-out, so they are no random draw. The note in brackets gives the kind of curve behind each potency; many fits are weak.

This assay is described as follows: qHTS Assay for Lipid Storage Modulators in Drosophila S3 Cells.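 As to cell number change: cells counted by Cell Tracker Red CMTPX staining in the red channel.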 The settings on record: BODIPY lipid droplet fluorescence, 18-24 h; for cell number change: measured here: cell count max response, cells fed with added oleic acid. The procedure, abridged:
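Drosophila S3 cells loaded with oleic acid (400 uM, as added) and compounds at several concentrations; lipid droplets imaged by 488-nm laser-scanning cytometry, 500–530 nm intensity and object ratio to cell channel. Percent activity normalized to 20 uM Triacsin C.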

[1] abbreviates: measured here: lipid fluorescence (Fed channel) AC50, cells fed with added oleic acid.
Where [2] appears, read: measured here: cell number channel AC50, cells fed with added oleic acid.

`O=C(Nc1cccc(Cl)c1N1CCOCC1)c1ccco1`: the cell number change was found to be 7.69%. Further, the concentration at half-maximal activity (AC50) under setting [1] is 16.4 µM [falling, partial curve].

`Cc1cccc(N(CC(=O)NC2CCCCC2)C(=O)c2c(C)noc2C)c1`: the AC50 is, setting by setting: under setting [2], 6.51 µM [falling, single point]; under setting [1], 14.6 µM [falling, partial curve].

As to `COc1ccccc1C(=O)NN(C)C1=NS(=O)(=O)c2ccccc21`, the cell number change was -54.2%.

As to `O=C(O)Cn1cnc2c(=S)nc[nH]c21`, the cell number change is -43.9%. Also, the AC50 under setting [2] was 29.1 µM [falling, single point]. The half-maximal activity concentration (AC50) under setting [1] was 29.1 µM [falling, single point].

Consider `CCCCCc1ccc(-c2cn(CN3C(=O)c4ccccc4C3=O)nn2)cc1`, for which, under setting [1], the AC50 was 29.1 µM [rising, single point].

For the compound `COc1ccc(NC(=O)Cc2nn(C)c(=O)c3ccccc23)c2ncccc12`, the cell number change was found to be 54.2%. Further, under setting [2], the concentration at half-maximal activity (AC50) is 29.1 µM [rising, single point]. For the same compound, the half-maximal activity concentration (AC50) under setting [1] is 29.1 µM [rising, single point].

`OC(COCc1cccs1)CN1CCCCCC1` (stereo not drawn): the cell number change turned out to be 18.3%. Moreover, the AC50 under setting [1] is 0.13 µM [rising, full curve, poor fit].

As to `Cc1c(CC(C)C)nc(N)c(C#N)c1-c1ccccc1`, the cell number change is -21.9%.

As to `COc1cccc(/C=C/C(=O)OCC(=O)NC2CC2)c1`, the cell number change was -36.9%. In addition, the half-maximal activity concentration (AC50) under setting [2] was 8.2 µM [falling, partial curve, poor fit]. For the same compound, the AC50 under setting [1] is 0.00461 µM [falling, full curve, poor fit].

Regarding `O=C(Cn1ncc2c([nH]c3ccccc32)c1=O)NCCCN1CCN(c2ccccc2)CC1`, the cell number change was found to be 56.3%. The concentration at half-maximal activity (AC50) under setting [2] is 0.517 µM [rising, partial curve]. For the same compound, the AC50 under setting [1] is 29.1 µM [rising, single point].

Take `COCCCNC(=O)C1CCN(S(=O)(=O)c2c(C)noc2/C=C\c2ccc(OC)cc2)CC1`: the cell number change was determined as 90.9%. Under setting [2], the AC50 was 18.4 µM [rising, single point]. For the same compound, under setting [1], the AC50 was 20.6 µM [rising, single point].

As for `C=CCn1cnc2c(NCc3ccccc3)ncnc21`, the concentration at half-maximal activity (AC50) is 0.146 µM [rising, full curve, poor fit] under setting [2] and 0.206 µM [rising, full curve, poor fit] under setting [1].

`C=CCN(c1ccccc1C(=O)NCC(=O)O)S(=O)(=O)c1ccc(C)cc1`: the cell number change is -49%. For the same compound, the half-maximal activity concentration (AC50) under setting [2] is 29.1 µM [falling, single point]. For the same compound, the AC50 under setting [1] was 29.1 µM [falling, single point].

As to `Cc1ccc2c(CC(=O)NNC(=O)c3ccccc3)coc2c1`, the cell number change is -7.16%. In addition, under setting [2], the concentration at half-maximal activity (AC50) was 0.13 µM [falling, full curve, poor fit].

With `CC(=O)N1CC2(CC(=O)OC(C)C)CN(C(C)=O)CC(CC(=O)OC(C)C)(C1)C2=O`, the cell number change was -3.04%. Moreover, the AC50 under setting [2] was 0.0082 µM [falling, full curve, poor fit].
